According to patent publication US8653235B2 (Kwansei Gakuin Educational Foundation, priority 2010, dated 2014):

Assay: general procedure: Fmoc solid-phase peptide synthesis; Fmoc-Cys(Trt)-Trt(2-Cl) resin (2-chlorotrityl chloride resin, 0.70 mmol/g); HBTu/HOBt
Conditions: oxidative folding step, trifluoroacetic acid salt, then desalinized

Sequence: CGSIEQSC (cysteine pairing not given here)
- final HPLC purity: 98.2%

Ends that are not written are not given here.
